Values of other authors, collected in US10827753B2, “Compositions and methods for controlling nematodes” (Monsanto Technology LLC, priority 2007, dated 2020).
Some of these results come from one statement about several compounds together.

system: a variety of cell lines; details: reportedly; cited from earlier work

Compound | doses capable of inducing apoptosis [µM]
CN[C@@H]1C[C@H]2O[C@@](C)([C@@H]1OC)n1c3ccccc3c3c4c(c5c6ccccc6n2c5c31)C(=O)NC4 [staurosporine] | ≤ 1
CC[C@@]1(O)C(=O)OCc2c1cc1n(c2=O)Cc2cc3ccccc3nc2-1 [camptothecin] | ≤ 1
CC(=O)O[C@H]1C(=O)[C@@]2(C)[C@H]([C@H](OC(=O)c3ccccc3)[C@]3(O)C[C@H](OC(=O)[C@H](O)[C@@H](NC(=O)c4ccccc4)c4ccccc4)C(C)=C1C3(C)C)[C@]1(OC(C)=O)CO[C@@H]1C[C@@H]2O [paclitaxel] | ≤ 1
